Data on one molecule can be found in PMC8589989.

Chains of the proteins cited; added tags and fusions are not shown.
UniProt P09874: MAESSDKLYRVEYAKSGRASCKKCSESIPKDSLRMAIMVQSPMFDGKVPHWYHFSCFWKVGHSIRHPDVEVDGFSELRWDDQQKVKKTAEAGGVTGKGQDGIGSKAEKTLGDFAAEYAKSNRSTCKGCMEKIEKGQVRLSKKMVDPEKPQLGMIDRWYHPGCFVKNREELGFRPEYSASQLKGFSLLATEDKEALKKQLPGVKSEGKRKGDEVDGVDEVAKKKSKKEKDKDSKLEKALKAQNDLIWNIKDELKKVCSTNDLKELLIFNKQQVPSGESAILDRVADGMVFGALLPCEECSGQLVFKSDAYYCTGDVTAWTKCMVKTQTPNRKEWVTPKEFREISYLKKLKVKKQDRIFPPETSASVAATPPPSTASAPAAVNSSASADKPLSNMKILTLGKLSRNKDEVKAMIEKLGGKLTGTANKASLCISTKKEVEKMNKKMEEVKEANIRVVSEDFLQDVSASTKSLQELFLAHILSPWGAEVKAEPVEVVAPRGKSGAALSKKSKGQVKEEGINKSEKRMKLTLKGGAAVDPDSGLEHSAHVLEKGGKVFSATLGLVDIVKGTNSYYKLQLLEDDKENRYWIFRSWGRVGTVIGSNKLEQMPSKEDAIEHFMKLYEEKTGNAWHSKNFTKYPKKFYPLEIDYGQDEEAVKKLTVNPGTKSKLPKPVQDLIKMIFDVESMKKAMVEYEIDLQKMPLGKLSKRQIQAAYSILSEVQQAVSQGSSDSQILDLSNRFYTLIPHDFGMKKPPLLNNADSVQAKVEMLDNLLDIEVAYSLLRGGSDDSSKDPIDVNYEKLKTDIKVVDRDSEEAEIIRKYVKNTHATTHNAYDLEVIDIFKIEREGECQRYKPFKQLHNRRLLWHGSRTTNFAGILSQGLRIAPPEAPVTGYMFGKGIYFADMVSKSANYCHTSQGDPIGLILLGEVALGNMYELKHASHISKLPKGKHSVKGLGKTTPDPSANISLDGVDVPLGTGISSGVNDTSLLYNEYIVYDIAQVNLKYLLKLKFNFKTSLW

No constants are given. Whether binding was seen depends on the method and setting. Binding seen in cells or lysates may run through a third protein. Some results given as binding are weak or reduced against the parent protein; the word gives no strength.

The assay concerns the target GFP-PARP1 (UniProt P09874). The experiment in a line: pull-down; GFP-Trap pull-down of GFP fusion proteins from HeLa lysate (EBC buffer, benzonase), western blot for ZNF384.

B1: endogenous ZNF384 (HeLa) (protein, UniProt Q8TF68 1-577)
chain: MEESHFNSNPYFWPSIPTVSGQIENTMFINKMKDQLLPEKGCGLAPPHYPTLLTVPASVSLPSGISMDTESKSDQLTPHSQASVTQNITVVPVPSTGLMTAGVSCSQRWRREGSQSRGPGLVITSPSGSLVTTASSAQTFPISAPMIVSALPPGSQALQVVPDLSKKVASTLTEEGGGGGGGGGSVAPKPPRGRKKKRMLESGLPEMNDPYVLSPEDDDDHQKDGKTYRCRMCSLTFYSKSEMQIHSKSHTETKPHKCPHCSKTFANSSYLAQHIRIHSGAKPYSCNFCEKSFRQLSHLQQHTRIHSKMHTETIKPHKCPHCSKTFANTSYLAQHLRIHSGAKPYNCSYCQKAFRQLSHLQQHTRIHTGDRPYKCAHPGCEKAFTQLSNLQSHRRQHNKDKPFKCHNCHRAYTDAASLEVHLSTHTVKHAKVYTCTICSRAYTSETYLMKHMRKHNPPDLQQQVQAAAAAAAVAQAQAQAQAQAQAQAQAQAQAQASQASQQQQQQQQQQQQQQQQPPPHFQSPGAAPQGGGGGDSNPNPPPQCSFDLTPYKTAEHHKDICLTVTTSTIQVEHLASS
As for B1, the binding entry is “binds”.
